Laboratory results taken from PMC8782181.
These are yes or no findings as the source states them, for the method shown. In cells and extracts the contact can be indirect. A yes stands for co-enrichment or nearness to the bait. Other partners may have been found. For some assays here: Tags and fused reporters may be left off the sequences shown.

Sequences of proteins named here, by UniProt entry; tags and fusion partners are left off.
UniProt P53297: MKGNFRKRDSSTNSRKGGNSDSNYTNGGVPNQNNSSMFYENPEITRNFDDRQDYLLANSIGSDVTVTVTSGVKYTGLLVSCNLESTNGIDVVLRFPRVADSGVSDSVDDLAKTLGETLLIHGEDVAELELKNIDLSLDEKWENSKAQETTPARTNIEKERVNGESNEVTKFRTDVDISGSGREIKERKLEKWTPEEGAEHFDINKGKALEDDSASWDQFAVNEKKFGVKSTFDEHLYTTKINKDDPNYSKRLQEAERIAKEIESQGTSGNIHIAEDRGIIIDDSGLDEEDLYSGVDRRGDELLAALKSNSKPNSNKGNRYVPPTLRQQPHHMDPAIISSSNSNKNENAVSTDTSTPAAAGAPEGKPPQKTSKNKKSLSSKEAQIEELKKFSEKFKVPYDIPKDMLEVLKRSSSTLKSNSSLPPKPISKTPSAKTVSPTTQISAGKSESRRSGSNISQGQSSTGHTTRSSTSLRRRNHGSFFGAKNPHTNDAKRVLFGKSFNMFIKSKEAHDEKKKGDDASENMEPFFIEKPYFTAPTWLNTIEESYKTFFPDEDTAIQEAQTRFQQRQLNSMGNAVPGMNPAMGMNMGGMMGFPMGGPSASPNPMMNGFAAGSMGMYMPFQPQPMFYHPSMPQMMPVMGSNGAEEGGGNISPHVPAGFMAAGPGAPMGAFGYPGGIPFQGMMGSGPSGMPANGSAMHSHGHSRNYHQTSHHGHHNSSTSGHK

T1: Dcp1-myc (S. cerevisiae) (UniProt Q12517)
T1 sequence: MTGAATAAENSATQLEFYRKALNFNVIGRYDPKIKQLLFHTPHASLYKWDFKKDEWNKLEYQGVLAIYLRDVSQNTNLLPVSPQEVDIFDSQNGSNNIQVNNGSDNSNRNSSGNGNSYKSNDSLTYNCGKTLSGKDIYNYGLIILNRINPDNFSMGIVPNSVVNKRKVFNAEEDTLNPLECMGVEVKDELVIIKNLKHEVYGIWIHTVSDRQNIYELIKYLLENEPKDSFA


Legend:
[1] = target: Pbp1-myc (S. cerevisiae) (UniProt P53297); test: affinity purification with mass spectrometry; cells unstressed or glucose-depleted (10 min for Dcp1-myc, 60 min for Pbp1-myc), cross-linked with 0.8% formaldehyde; 20,000 g pellet of the lysate in Blob100 buffer (20 mM Tris-HCl pH 8, 100 mM NaCl, 1 mM MgCl2, 0.5% NP40) on anti-c-Myc magnetic beads, eluted with Myc peptide; label-free LC-MS/MS; hits are the proteins that cluster (Mfuzz) with the tagged bait across IP, pellet, supernatant, total and unbound fractions
[2] = target: T1, Dcp1-myc (S. cerevisiae); test: as above

Binder	binding [1]	binding [2]
Ecm33 (protein, UniProt P38248 20-406) ANSTTSIPSSCSIGTSATATAQADLDKISGCSTIVGNLTITGDLGSAALASIQEIDGSLTIFNSSSLSSFSADSIKKITGDLNMQELIILTSASFGSLQEVDSINMVTLPAISTFSTDLQNANNIIVSDTTLESVEGFSTLKKVNVFNINNNRYLNSFQSSLESVSDSLQFSSNGDNTTLAFDNLVWANNITLRDVNSISFGSLQTVNASLGFINNTLPSLNLTQLSKVGQSLSIVSNDELSKAAFSNLTTVGGGFIIANNTQLKVIDGFNKVQTVGGAIEVTGNFSTLDLSSLKSVRGGANFDSSSSNFSCNALKKLQSNGAIQGDSFVCKNGATSTSVKLSSTSTESSKSSATSSASSSGDASNAQANVSASASSSSSSSKKSKG	binds	–
Ecm32 (protein, UniProt P32644 1-1121) MDFQCRTCSQAYDAEQMMKHLSSTRHKTVFDTSNDEDICCEECQDKNIHQLQIIRFGGEDMVLLCNSCFRKEYSETERPSTSYSLQNGSILKFWEKYVKVRECCCDECGEESNLNANRNGEVLCDKCLPKSNRAKDFVSEKSGRFLYIYLGLNETQNSTRKPRKKGGRRVGRGKKGRKGAKIKKEKKETFEAKISRIAYEVKKENSTIQSSSSSNLRNFKGFKAVESDPVVAAKVSKSETSRSNPGPSNRNKGKGNKANHKKNSGNGIGKEKERKTNIRNNVRNSQPIPEDRKNTNSHVTTNSGGKGKNESVDKHQLPQPKALNGNGSGSTNTTGLKKGKKDHAGQKTKGNDKTGNKNPREAKLNSAGRKNALGKKSNNQPNKGTSRWTIGSDTESSREPSISPNENTTSITKSRNRNKKASKPTLNEKSKTTTMPKKLETKNQEKNNGKTKDGKLIYEEGEPLTRYNTFKSTLSYPDLNTYLNDYSFALFLEQKLENEFVQNFNILWPRNEKDTAFIINVEKNNNSELEKLLPANLLALGRPAFNERQPFFFCTQDEQKVWYIFIKELSIQRGKYVLLVELFSWNNLSLPTKNGSSQFKLLPTSAQTSRILFAMTRITNPKFIDLLLGQKPIKEIYFDNRLKFSSDKLNRSQKTAVEHVLNNSITILQGPPGTGKTSTIEEIIIQVIERFHAFPILCVAASNIAIDNIAEKIMENRPQIKILRILSKKKEQQYSDDHPLGEICLHNIVYKNLSPDMQVVANKTRRGEMISKSEDTKFYKEKNRVTNKVVSQSQIIFTTNIAAGGRELKVIKECPVVIMDEATQSSEASTLVPLSLPGIRNFVFVGDEKQLSSFSNIPQLETSLFERVLSNGTYKNPLMLDTQYRMHPKISEFPIKKIYNGELKDGVTDEQKAWPGVQHPLFFYQCDLGPESRVRSTQRDIVGFTYENKHECVEIVKIIQILMLDKKVPLEEIGVITPYSAQRDLLSDILTKNVVINPKQISMQQEYDEIELFNAAGSQGTAGSLQNNVINIINGLHVATVDSFQGHEKSFIIFSCVRNNTENKIGFLRDKRRLNVALTRAKHGLIVVGNKNVLRKGDPLWKDYITYLEEQEVIFTDLTAY	binds	–
Fun12 (protein, UniProt P39730 1-1002) MAKKSKKNQQNYWDEEFEEDAAQNEEISATPTPNPESSAGADDTSREASASAEGAEAIEGDFMSTLKQSKKKQEKKVIEEKKDGKPILKSKKEKEKEKKEKEKQKKKEQAARKKAQQQAQKEKNKELNKQNVEKAAAEKAAAEKSQKSKGESDKPSASAKKPAKKVPAGLAALRRQLELKKQLEEQEKLEREEEERLEKEEEERLANEEKMKEEAKAAKKEKEKAKREKRKAEGKLLTRKQKEEKKLLERRRAALLSSGNVKVAGLAKKDGEENKPKKVVYSKKKKRTTQENASEAIKSDSKKDSEVVPDDELKESEDVLIDDWENLALGDDDEEGTNEETQESTASHENEDQNQGEEEEEGEEEEEEEEERAHVHEVAKSTPAATPAATPTPSSASPNKKDLRSPICCILGHVDTGKTKLLDKIRQTNVQGGEAGGITQQIGATYFPIDAIKAKTKVMAEYEKQTFDVPGLLVIDTPGHESFSNLRSRGSSLCNIAILVIDIMHGLEQQTIESIKLLRDRKAPFVVALNKIDRLYDWKAIPNNSFRDSFAKQSRAVQEEFQSRYSKIQLELAEQGLNSELYFQNKNMSKYVSIVPTSAVTGEGVPDLLWLLLELTQKRMSKQLMYLSHVEATILEVKVVEGFGTTIDVILSNGYLREGDRIVLCGMNGPIVTNIRALLTPQPLRELRLKSEYVHHKEVKAALGVKIAANDLEKAVSGSRLLVVGPEDDEDELMDDVMDDLTGLLDSVDTTGKGVVVQASTLGSLEALLDFLKDMKIPVMSIGLGPVYKRDVMKASTMLEKAPEYAVMLCFDVKVDKEAEQYAEQEGIKIFNADVIYHLFDSFTAYQEKLLEERRKDFLDYAIFPCVLQTLQIINKRGPMIIGVDVLEGTLRVGTPICAVKTDPTTKERQTLILGKVISLEINHQPVQEVKKGQTAAGVAVRLEDPSGQQPIWGRHVDENDTLYSLVSRRSIDTLKDKAFRDQVARSDWLLLKKLKVVFGIE	binds	–
Dcp2 (protein, UniProt P53550 1-970) MSLPLRHALENVTSVDRILEDLLVRFIINCPNEDLSSVERELFHFEEASWFYTDFIKLMNPTLPSLKIKSFAQLIIKLCPLVWKWDIRVDEALQQFSKYKKSIPVRGAAIFNENLSKILLVQGTESDSWSFPRGKISKDENDIDCCIREVKEEIGFDLTDYIDDNQFIERNIQGKNYKIFLISGVSEVFNFKPQVRNEIDKIEWFDFKKISKTMYKSNIKYYLINSMMRPLSMWLRHQRQIKNEDQLKSYAEEQLKLLLGITKEEQIDPGRELLNMLHTAVQANSNNNAVSNGQVPSSQELQHLKEQSGEHNQQKDQQSSFSSQQQPSIFPSLSEPFANNKNVIPPTMPMANVFMSNPQLFATMNGQPFAPFPFMLPLTNNSNSANPIPTPVPPNFNAPPNPMAFGVPNMHNLSGPAVSQPFSLPPAPLPRDSGYSSSSPGQLLDILNSKKPDSNVQSSKKPKLKILQRGTDLNSIKQNNNDETAHSNSQALLDLLKKPTSSQKIHASKPDTSFLPNDSVSGIQDAEYEDFESSSDEEVETARDERNSLNVDIGVNVMPSEKDSRRSQKEKPRNDASKTNLNASAESNSVEWGPGKSSPSTQSKQNSSVGMQNKYRQEIHIGDSDAYEVFESSSDEEDGKKLEELEQTQDNSKLISQDILKENNFQDGEVPHRDMPTESNKSINETVGLSSTTNTVKKVPKVKILKRGETFASLANDKKAFDSSSNVSSSKDLLQMLRNPISSTVSSNQQSPKSQHLSGDEEIMMMLKRNSVSKPQNSEENASTSSINDANASELLGMLKQKEKDITAPKQPYNVDSYSQKNSAKGLLNILKKNDSTGYPRTEGGPSSEMSTSMKRNDATNNQELDKNSTELLNYLKPKPLNDGYENISNKDSSHELLNILHGNKNSSAFNNNVYATDGYSLASDNNENSSNKLLNMLQNRSSAINEPNFDVRSNGTSGSNELLSILHRK	binds	–
Gas1 (protein, UniProt P22146 23-528) DDVPAIEVVGNKFFYSNNGSQFYIRGVAYQADTANETSGSTVNDPLANYESCSRDIPYLKKLNTNVIRVYAINTTLDHSECMKALNDADIYVIADLAAPATSINRDDPTWTVDLFNSYKTVVDTFANYTNVLGFFAGNEVTNNYTNTDASAFVKAAIRDVRQYISDKNYRKIPVGYSSNDDEDTRVKMTDYFACGDDDVKADFYGINMYEWCGKSDFKTSGYADRTAEFKNLSIPVFFSEYGCNEVTPRLFTEVEALYGSNMTDVWSGGIVYMYFEETNKYGLVSIDGNDVKTLDDFNNYSSEINKISPTSANTKSYSATTSDVACPATGKYWSAATELPPTPNGGLCSCMNAANSCVVSDDVDSDDYETLFNWICNEVDCSGISANGTAGKYGAYSFCTPKEQLSFVMNLYYEKSGGSKSDCSFSGSATLQTATTQASCSSALKEIGSMGTNSASGSVDLGSGTESSTASSNASGSSSKSNSGSSGSSSSSSSSSASSSSSSKKN	binds	–

Other lines, results leading:

binding [1]	binding [2]	Binder
–	binds	Mrh1 (protein, UniProt Q12117 1-320) MSTFETLIKRGGNEAIKINPPTGADFHITSRGSDWFWTCFCCYLLFGLILTFLMFRKPVNDRFFYLTGIAPNFFMCIAYFTMASNLGWIPVKAKYNHVQTSTQKEHPGYRQIFYSRFVGWFLALPWPIIQICMLAGTPFWQMAFNVCITEFFTVCWLIAACVHSTYKWGYYTIGLGAAIVVSISVMTTSYNLVKQRDNDIRLTFLVFFSIIMFLWIIAYPTCFGITDGGNVLQPDSAGIFYGIIDLILMCFIPTLLVPIANHFGADKLGYHFGPSDAEAVMAPKAPVASPRPAATPNLSKDKKKKSKKSKKSKKSKKSEE
–	binds	Lsm4 (protein, UniProt P40070 1-187) MLPLYLLTNAKGQQMQIELKNGEIIQGILTNVDNWMNLTLSNVTEYSEESAINSEDNAESSKAVKLNEIYIRGTFIKFIKLQDNIIDKVKQQINSNNNSNSNGPGHKRYYNNRDSNNNRGNYNRRNNNNGNSNRRPYSQNRQYNNSNSSNINNSINSINSNNQNMNNGLGGSVQHHFNSSSPQKVEF
binds	–	eIF4G2 (protein, UniProt P39936 1-914) MTDQRGPPPPHPQQANGYKKFPPHDNQYSGANNSQPNNHYNENLYSAREPHNNKQYQSKNGKYGTNKYNNRNNSQGNAQYYNNRFNNGYRLNNNDYNPAMLPGMQWPANYYAPQMYYIPQQMVPVASPPYTHQPLNTNPEPPSTPKTTKIEITTKTGERLNLKKFHEEKKASKGEEKNDGVEQKSKSGTPFEKEATPVLPANEAVKDTLTETSNEKSTSEAENTKRLFLEQVRLRKAAMERKKNGLISETEKKQETSNHDNTDTTKPNSVIESEPIKEAPKPTGEANEVVIDGKSGASVKTPQHVTGSVTKSVTFNEPENESSSQDVDELVKDDDTTEISDTTGGKTVNKSDDETINSVITTEENTVKETEPSTSDIEMPTVSQLLETLGKAQPISDIYEFAYPENVERPDIKYKKPSVKYTYGPTFLLQFKDKLKFRPDPAWVEAVSSKIVIPPHIARNKPKDSGRFGGDFRSPSMRGMDHTSSSRVSSKRRSKRMGDDRRSNRGYTSRKDREKAAEKAEEQAPKEEIAPLVPSANRWIPKSRVKKTEKKLAPDGKTELFDKEEVERKMKSLLNKLTLEMFDSISSEILDIANQSKWEDDGETLKIVIEQIFHKACDEPHWSSMYAQLCGKVVKDLDPNIKDKENEGKNGPKLVLHYLVARCHEEFEKGWADKLPAGEDGNPLEPEMMSDEYYIAAAAKRRGLGLVRFIGYLYCLNLLTGKMMFECFRRLMKDLNNDPSEETLESVIELLNTVGEQFEHDKFVTPQATLEGSVLLDNLFMLLQHIIDGGTISNRIKFKLIDVKELREIKHWNSAKKDAGPKTIQQIHQEEEQLRQKKNSQRSNSRFNNHNQSNSNRYSSNRRNMQNTQRDSFASTKTGSFRNNQRNARKVEEVSQAPRANMFDALMNNDGDSD
